Hit rate of the full screen: of about 52,000 sequences, about 210 (0.4%) were called active.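 How the source made its calls: active means gene whose silencing raises cell survival under the drug, median off-target-corrected z-score across its silencing RNAs 2 or more; inactive means the rest.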 The list shows a part of the results.

This test can be described thus: Resistance to Poly (ADP-Ribose) Polymerase inhibitor: Gene Identification via Genome-wide siRNA Screen. As to conditions: mouse BRCA2 R2336H ES cells, olaparib, CellTiter-Glo viability; stronger effect = higher value. In outline: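 Mouse BRCA2 R2336H ES cells were reverse-transfected with siRNA (20 nM final), treated at 48 h with 500 nM olaparib, and read by CellTiter-Glo after 72 h. Scores: MAD-based z per siRNA, median per gene, seed off-target correction.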
As to GGAAGUGACACGAUUUGAGTT against Snx1, the z-score was inactive: 0.526.
On to “GGUCAGAAAAAAGUGUAUUTT against A630054L15Rik”, for which the z-score is inactive: -0.612.
For the sequence “CGCAGACAGUUUGAGGCUGTT against 1700034P14Rik”, the z-score was inactive: -0.696.
Regarding GGUGGAAUAUAUUGAGUAUTT against BC031748, the z-score is inactive: -2.41.
Under GGGAAAGAUAAAUGUUUCCTT against Gucy1b3 stands inactive: 3.02; under “GCCUGUGGUGAUUCUCUUGTT against 1110038M16Rik”, inactive: -0.344; under GGGAAGAAGGUUAGCUAAUTT against Trpc6, inactive: 2.16.
In the case of GCUCUACUGCAUCAUUUUATT against Apobec1, the z-score is inactive: 0.496.
As for “GGUGCCAACUUAGAGAGCGTT against E430018J23Rik”, the z-score was inactive: -0.301.
Consider GGGUCACGCAUCCUAAGAATT against Blvrb, for which the z-score was inactive: 0.505.
Under GGAAACCUGCUCAUUGUCGTT against Olfr1233 stands inactive: -0.862; under GGCAUCAACAGAAUAACCATT against Tomm34, inactive: -1.3; under GGCCAGGUAUAAAUAUAUATT against Dusp8, inactive: 0.809.
Under GGAGUUUUUGGGUAACCUGTT against Mfge8 stands inactive: 0.446; under GGAAUGAGGAAAGAGGAGATT against Rgs17, inactive: -0.118; under CGAAAAAACAUCAGACCCATT against Sulf1, inactive: 0.253.
Under GGUAAAUUCCUUAACUCACTT against Utrn stands inactive: 0.938.
On to GGGAUGCGGAGGUUUAAGATT against Dhx37, for which the z-score was inactive: -1.39.
Under GGCAAGCACUCUUUAGACATT against Cd2bp2 stands inactive: -0.889.
In the case of “GCAAAUUAUUGGAUGAUGCTT against 2700085E05Rik”, the z-score is inactive: 0.354.
GGACUCUUCUUGGUGAUGUTT against Slc22a18: the z-score is inactive: 0.425.
For “GGAUGUUCUACUGCUACACTT against 1810033A06Rik”, the z-score was inactive: 0.098.
Turning to GGAAUUUCAGCCAGUUUCUTT against Sox5, the z-score was inactive: 0.178.
As to GCGAUUUCCAUGUGAAUUCTT against Zfp462, the z-score was inactive: -0.438.
As to CGAACCUGUUGACGGAUUCTT against Wnt1, the z-score is inactive: 1.48.
GGAGAAAUUCUUCAAUGAGTT against Syt2: the z-score was inactive: -0.0649.
Consider GGAAUAGUGGCUUCUUUUATT against Rshl2, for which the z-score is inactive: 0.0767.
Under GCGAAGCGAAUCCUUUUUCTT against Fosl2 stands inactive: -0.682.
In the case of “GCAGAUCAAACAGCACUCGTT against 2900090M10Rik”, the z-score was inactive: 0.345.
Under GGCAACCAAUCAAAUUGUGTT against Npepps stands inactive: -1.55; under CAAAGCCACCUCGCCCUAUTT against Nkx2-6, inactive: -0.687; under GGAAAGCACGUCCUCUUUGTT against Gpx5, inactive: -0.49.
As for CCUCAGACUACCUUGUGGUTT against Otub1, the z-score was inactive: 0.849.
Consider GCAUCUGGUAAAAGGAGCATT against Rpap1, for which the z-score is inactive: -0.222.
With GCGAAUCUUUCAUAACAGUTT against AA959742 the figure was inactive: 0.838; with GAUGGAGAAACUGAAGAAGTT against Olfml2a, inactive: -0.0631.
For GGUAACCUGGAUGGAGAAGTT against Mrps24, the z-score is inactive: -2.39.
On to GGUGCUUUGUUAUCCAUAATT against Tnfrsf26, for which the z-score is inactive: -0.909.
For the sequence GGCUGUGUUCUCAAACAGCTT against St6gal1, the z-score is inactive: 0.989.
With GGAAAAUCGGUUAUCAUAATT against Pde7a the figure was inactive: -0.3.
Consider GCCUUACGCACUCUCUAAATT against Col4a2, for which the z-score is inactive: 0.0954.
GCAAGUUAGGCCUUUUAAATT against Cycs: the z-score was inactive: 1.63.
Regarding GCCCUUACAUUUUAUACUATT against Zfp93, the z-score was inactive: 0.288.
Turning to GGUGAAUGAGAUGUCGGCCTT against Loh12cr1, the z-score is inactive: -0.547.
As to GGGCAAGAUGAAGAGGAUUTT against Ptdss2, the z-score is inactive: 0.627.
Turning to GCACUUAUACUACUUAGUUTT against Abca8a, the z-score was inactive: -0.464.
As for CGUAAGGAAGAUAACUUUUTT against Gatm, the z-score was inactive: 0.48.
With “CCAACCACAGGAUCAGAUGTT against 9930111I18Rik” the figure was inactive: 0.141; with “GCUGUUCUAAAUCCAAACCTT against A930037J23Rik”, inactive: 2.49.
Under UCCUGUUCGUUCCUUUCCUTT against Olfr740 stands inactive: 1.17; under CGUACUAUAGUAAAUCCAGTT against Clk1, inactive: 0.404.
Turning to “CGAACUACUGACCCAGCUUTT against 4833422F24Rik”, the z-score is inactive: -1.96.
As for GGCAGAGGCAGACAAGAUUTT against Scg3, the z-score is inactive: 0.674.
Turning to GCCACGACAACAAAUCCCATT against Lbr, the z-score was inactive: 0.947.
GGGAAUGGUUCGAGGAAAATT against Trex1: the z-score is inactive: 0.218.
On to GGAGAAGAAACAAAAACCUTT against Ktn1, for which the z-score is inactive: 0.575.
In the case of GGGCUACACAAGUCCCUAUTT against Hoxd13, the z-score is inactive: 0.836.
For GGUUGAAUCAGGCAUCAUUTT against Sypl, the z-score is inactive: 1.11.
As for CCUUCGUGUUCACUUUAAGTT against Rpl17, the z-score is inactive: -3.04.
As for GGGAAUGCAAGACUUCAAUTT against Cpn1, the z-score was inactive: 0.223.
In the case of CCAUCAAGCGAUUUGUGGUTT against Rnf103, the z-score is inactive: 0.653.
With CCAAGUCAAGUAACCCUUATT against Fgf4, the z-score was inactive: -0.261.
Take GGACACUAUACAAAUUUCGTT against Fank1: the z-score is inactive: 0.447.
With “GGAAAACAGCUUUGAUUGGTT against E130009J12Rik”, the z-score was inactive: 1.42.
Under GGGUCGUUGGCAUCAUCAATT against Rps6kl1 stands inactive: -1.67; under GGUAAAAAGUUUUGGGAAATT against Pum1, inactive: -1.59.
Under GGACGAGAAGAUCAACAUCTT against Rnf30 stands inactive: -0.455; under GGCAGAGACACAAGUCACUTT against Adam3, inactive: 1.25.
Regarding GCUGUACGAGCCCUGAUGATT against Cldn18, the z-score was inactive: -0.96.
For GGUUUUCACUGUGAAUUUGTT against Plscr1, the z-score was inactive: 0.749.
Regarding GGACUUAACUGGACAAAAUTT against Card12, the z-score is inactive: -0.0214.
As for CGAUGUAUUGUUAUUGCCATT against Lrp10, the z-score is inactive: 0.189.
Regarding CCCAACAAAUACCACUACATT against Usp20, the z-score was inactive: 1.63.
Under GGACUCAAAAAAGCAACGUTT against Tpbpb stands inactive: -1.31.
With CGACCAAUGGGCGUAAUCATT against Obox3 the figure was inactive: -1.55.
With GGCUGCUUGGUGUCAUUUUTT against Mrps34, the z-score is inactive: -0.825.
In the case of GGAGAAAAGAUAUGCUAUGTT against Dip3b, the z-score is inactive: 1.53.
Turning to “GCCUUUAAGAUACUAUCCATT against 4930506D23Rik”, the z-score is inactive: -0.154.
With “CGUAUUGUUCUCAAGCUAUTT against 5830458K16Rik” the figure was inactive: 0.281; with GGAAGAAACUGGCUACAAATT against Nudt5, inactive: 0.128.
In the case of CGUCCAUAAGCAGGUGUGUTT against Cops6, the z-score is inactive: -2.43.
For GGAAAGUAUGUCCAUUCUATT against Tnfrsf1a, the z-score was inactive: -1.24.
Consider “GGUGAAGAAGAGUCUCAAATT against 3010026O09Rik”, for which the z-score was inactive: -1.57.
As to CGGUAAUGGGUAUCCUUUGTT against Olfr620, the z-score is inactive: -1.4.
With “CCAGCAUGCAUGAACGAGUTT against 2410127L17Rik”, the z-score was inactive: -0.0173.
For GCACAUCUUGGACCGUUUCTT against Lhx3, the z-score was inactive: -1.79.
For the sequence GGUGAAGUUGAAUGGAAGUTT against Zf, the z-score is inactive: -1.59.
On to GGAUUUGAGGUUUUAGGAATT against Qtrtd1, for which the z-score is inactive: 2.67.
With CCAUAUAUCUGAUCACACUTT against Olfr832 the figure was inactive: 0.801; with CGAUUGAUGAAUCUGGUUCTT against Racgap1, inactive: 0.0197; with GCCUAGAAAGUUCUAUGUUTT against Fcho1, inactive: -0.429.
In the case of GGUUUUGGUAUAGAUACUUTT against Phxr4, the z-score was inactive: 0.155.
For the sequence “CCCAUCCCUGUAAAAAUUCTT against 0610025L06Rik”, the z-score was inactive: 0.108.
As for “CGUUUGUUGAAAGAAGAAGTT against D10Ertd214e”, the z-score was inactive: -0.964.
With CGAAAAUCUUCUGGCUCACTT against Llglh2, the z-score was inactive: 0.0181.
Regarding GGACAAUGUUUUGAUGAGUTT against D6Wsu176e, the z-score was inactive: 0.308.
Regarding CGUGGAUAAAAUUAAGUAGTT against Pdlim2, the z-score was inactive: -0.41.
On to GGAGGAAUACAAAUUCAAGTT against AF119384, for which the z-score is inactive: 0.649.
For GGAACCAUGGCAGUGCAUCTT against Dlk1, the z-score was inactive: 0.0123.
For the sequence CCCAACAUUAUCUUGGACCTT against Mrgpra8, the z-score is inactive: -0.136.
On to GCUUCUUCAAGAGUAUAAUTT against Gad2, for which the z-score was inactive: 0.412.
With “GGAUUCCUUACCAAAGAAGTT against 1700008F21Rik”, the z-score was inactive: 1.21.
In the case of “CCAAGACAUCACAUUCAUATT against 4933403H06Rik”, the z-score is inactive: -0.253.
In the case of “GCAAACCAGGGAAAAAGUGTT against 4631426G04Rik”, the z-score is inactive: -1.47.
